Some of the results follow.
Experiments:
Test in all cases: log2 fold change, soluble protein after heating vs DMSO (PISA); higher = thermal stabilisation; K562 cells, 10 uM, 30 min; active = over 0.2 and 3.5 SD of the protein, either way, in both replicates (recomputed)
[1] = compound: CC1=C(C=C(C=C1)NC(=O)C2=CC(=CC=C2)C(C)(C)C#N)NC3=CC4=C(C=C3)N=CN(C4=O)C
Summary of the method: (§1)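 K562 cells at 2×10^6 cells/mL were exposed to 10 μM compound for 30 min, then aliquots were heated for 3 min across 48°C-58°C, pooled, and extracted in PBS containing 0.5% NP-40 at 4°C. The supernatant after 21,000xg for 90 min was taken as soluble protein and measured by TMTpro 16plex LC-MS/MS with channel sums equalised. Thermal stability is reported relative to control samples, with values from duplicates. Fold changes are given on a log2 scale.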

By UniProt entry, the sequences of proteins in these tests, tags left out. Where a name states a change or a piece, a line headed by the entry shows the natural chain unless it says otherwise.
UniProt Q9BRG1: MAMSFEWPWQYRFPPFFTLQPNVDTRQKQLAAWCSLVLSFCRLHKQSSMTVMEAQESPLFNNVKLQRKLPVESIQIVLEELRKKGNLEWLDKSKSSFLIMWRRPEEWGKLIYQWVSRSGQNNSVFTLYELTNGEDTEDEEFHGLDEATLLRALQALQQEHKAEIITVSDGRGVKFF
UniProt Q8IWB7: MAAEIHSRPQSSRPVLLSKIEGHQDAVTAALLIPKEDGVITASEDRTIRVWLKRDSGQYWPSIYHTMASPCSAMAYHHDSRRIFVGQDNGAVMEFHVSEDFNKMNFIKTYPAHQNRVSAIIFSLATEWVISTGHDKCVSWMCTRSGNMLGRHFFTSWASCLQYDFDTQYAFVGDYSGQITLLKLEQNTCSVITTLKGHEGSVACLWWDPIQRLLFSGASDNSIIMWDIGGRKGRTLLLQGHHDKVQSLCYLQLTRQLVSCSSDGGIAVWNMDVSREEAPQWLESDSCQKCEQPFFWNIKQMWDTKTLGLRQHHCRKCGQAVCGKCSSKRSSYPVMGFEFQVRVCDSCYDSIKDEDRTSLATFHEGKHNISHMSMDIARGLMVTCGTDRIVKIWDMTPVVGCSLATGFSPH
UniProt Q5THJ4: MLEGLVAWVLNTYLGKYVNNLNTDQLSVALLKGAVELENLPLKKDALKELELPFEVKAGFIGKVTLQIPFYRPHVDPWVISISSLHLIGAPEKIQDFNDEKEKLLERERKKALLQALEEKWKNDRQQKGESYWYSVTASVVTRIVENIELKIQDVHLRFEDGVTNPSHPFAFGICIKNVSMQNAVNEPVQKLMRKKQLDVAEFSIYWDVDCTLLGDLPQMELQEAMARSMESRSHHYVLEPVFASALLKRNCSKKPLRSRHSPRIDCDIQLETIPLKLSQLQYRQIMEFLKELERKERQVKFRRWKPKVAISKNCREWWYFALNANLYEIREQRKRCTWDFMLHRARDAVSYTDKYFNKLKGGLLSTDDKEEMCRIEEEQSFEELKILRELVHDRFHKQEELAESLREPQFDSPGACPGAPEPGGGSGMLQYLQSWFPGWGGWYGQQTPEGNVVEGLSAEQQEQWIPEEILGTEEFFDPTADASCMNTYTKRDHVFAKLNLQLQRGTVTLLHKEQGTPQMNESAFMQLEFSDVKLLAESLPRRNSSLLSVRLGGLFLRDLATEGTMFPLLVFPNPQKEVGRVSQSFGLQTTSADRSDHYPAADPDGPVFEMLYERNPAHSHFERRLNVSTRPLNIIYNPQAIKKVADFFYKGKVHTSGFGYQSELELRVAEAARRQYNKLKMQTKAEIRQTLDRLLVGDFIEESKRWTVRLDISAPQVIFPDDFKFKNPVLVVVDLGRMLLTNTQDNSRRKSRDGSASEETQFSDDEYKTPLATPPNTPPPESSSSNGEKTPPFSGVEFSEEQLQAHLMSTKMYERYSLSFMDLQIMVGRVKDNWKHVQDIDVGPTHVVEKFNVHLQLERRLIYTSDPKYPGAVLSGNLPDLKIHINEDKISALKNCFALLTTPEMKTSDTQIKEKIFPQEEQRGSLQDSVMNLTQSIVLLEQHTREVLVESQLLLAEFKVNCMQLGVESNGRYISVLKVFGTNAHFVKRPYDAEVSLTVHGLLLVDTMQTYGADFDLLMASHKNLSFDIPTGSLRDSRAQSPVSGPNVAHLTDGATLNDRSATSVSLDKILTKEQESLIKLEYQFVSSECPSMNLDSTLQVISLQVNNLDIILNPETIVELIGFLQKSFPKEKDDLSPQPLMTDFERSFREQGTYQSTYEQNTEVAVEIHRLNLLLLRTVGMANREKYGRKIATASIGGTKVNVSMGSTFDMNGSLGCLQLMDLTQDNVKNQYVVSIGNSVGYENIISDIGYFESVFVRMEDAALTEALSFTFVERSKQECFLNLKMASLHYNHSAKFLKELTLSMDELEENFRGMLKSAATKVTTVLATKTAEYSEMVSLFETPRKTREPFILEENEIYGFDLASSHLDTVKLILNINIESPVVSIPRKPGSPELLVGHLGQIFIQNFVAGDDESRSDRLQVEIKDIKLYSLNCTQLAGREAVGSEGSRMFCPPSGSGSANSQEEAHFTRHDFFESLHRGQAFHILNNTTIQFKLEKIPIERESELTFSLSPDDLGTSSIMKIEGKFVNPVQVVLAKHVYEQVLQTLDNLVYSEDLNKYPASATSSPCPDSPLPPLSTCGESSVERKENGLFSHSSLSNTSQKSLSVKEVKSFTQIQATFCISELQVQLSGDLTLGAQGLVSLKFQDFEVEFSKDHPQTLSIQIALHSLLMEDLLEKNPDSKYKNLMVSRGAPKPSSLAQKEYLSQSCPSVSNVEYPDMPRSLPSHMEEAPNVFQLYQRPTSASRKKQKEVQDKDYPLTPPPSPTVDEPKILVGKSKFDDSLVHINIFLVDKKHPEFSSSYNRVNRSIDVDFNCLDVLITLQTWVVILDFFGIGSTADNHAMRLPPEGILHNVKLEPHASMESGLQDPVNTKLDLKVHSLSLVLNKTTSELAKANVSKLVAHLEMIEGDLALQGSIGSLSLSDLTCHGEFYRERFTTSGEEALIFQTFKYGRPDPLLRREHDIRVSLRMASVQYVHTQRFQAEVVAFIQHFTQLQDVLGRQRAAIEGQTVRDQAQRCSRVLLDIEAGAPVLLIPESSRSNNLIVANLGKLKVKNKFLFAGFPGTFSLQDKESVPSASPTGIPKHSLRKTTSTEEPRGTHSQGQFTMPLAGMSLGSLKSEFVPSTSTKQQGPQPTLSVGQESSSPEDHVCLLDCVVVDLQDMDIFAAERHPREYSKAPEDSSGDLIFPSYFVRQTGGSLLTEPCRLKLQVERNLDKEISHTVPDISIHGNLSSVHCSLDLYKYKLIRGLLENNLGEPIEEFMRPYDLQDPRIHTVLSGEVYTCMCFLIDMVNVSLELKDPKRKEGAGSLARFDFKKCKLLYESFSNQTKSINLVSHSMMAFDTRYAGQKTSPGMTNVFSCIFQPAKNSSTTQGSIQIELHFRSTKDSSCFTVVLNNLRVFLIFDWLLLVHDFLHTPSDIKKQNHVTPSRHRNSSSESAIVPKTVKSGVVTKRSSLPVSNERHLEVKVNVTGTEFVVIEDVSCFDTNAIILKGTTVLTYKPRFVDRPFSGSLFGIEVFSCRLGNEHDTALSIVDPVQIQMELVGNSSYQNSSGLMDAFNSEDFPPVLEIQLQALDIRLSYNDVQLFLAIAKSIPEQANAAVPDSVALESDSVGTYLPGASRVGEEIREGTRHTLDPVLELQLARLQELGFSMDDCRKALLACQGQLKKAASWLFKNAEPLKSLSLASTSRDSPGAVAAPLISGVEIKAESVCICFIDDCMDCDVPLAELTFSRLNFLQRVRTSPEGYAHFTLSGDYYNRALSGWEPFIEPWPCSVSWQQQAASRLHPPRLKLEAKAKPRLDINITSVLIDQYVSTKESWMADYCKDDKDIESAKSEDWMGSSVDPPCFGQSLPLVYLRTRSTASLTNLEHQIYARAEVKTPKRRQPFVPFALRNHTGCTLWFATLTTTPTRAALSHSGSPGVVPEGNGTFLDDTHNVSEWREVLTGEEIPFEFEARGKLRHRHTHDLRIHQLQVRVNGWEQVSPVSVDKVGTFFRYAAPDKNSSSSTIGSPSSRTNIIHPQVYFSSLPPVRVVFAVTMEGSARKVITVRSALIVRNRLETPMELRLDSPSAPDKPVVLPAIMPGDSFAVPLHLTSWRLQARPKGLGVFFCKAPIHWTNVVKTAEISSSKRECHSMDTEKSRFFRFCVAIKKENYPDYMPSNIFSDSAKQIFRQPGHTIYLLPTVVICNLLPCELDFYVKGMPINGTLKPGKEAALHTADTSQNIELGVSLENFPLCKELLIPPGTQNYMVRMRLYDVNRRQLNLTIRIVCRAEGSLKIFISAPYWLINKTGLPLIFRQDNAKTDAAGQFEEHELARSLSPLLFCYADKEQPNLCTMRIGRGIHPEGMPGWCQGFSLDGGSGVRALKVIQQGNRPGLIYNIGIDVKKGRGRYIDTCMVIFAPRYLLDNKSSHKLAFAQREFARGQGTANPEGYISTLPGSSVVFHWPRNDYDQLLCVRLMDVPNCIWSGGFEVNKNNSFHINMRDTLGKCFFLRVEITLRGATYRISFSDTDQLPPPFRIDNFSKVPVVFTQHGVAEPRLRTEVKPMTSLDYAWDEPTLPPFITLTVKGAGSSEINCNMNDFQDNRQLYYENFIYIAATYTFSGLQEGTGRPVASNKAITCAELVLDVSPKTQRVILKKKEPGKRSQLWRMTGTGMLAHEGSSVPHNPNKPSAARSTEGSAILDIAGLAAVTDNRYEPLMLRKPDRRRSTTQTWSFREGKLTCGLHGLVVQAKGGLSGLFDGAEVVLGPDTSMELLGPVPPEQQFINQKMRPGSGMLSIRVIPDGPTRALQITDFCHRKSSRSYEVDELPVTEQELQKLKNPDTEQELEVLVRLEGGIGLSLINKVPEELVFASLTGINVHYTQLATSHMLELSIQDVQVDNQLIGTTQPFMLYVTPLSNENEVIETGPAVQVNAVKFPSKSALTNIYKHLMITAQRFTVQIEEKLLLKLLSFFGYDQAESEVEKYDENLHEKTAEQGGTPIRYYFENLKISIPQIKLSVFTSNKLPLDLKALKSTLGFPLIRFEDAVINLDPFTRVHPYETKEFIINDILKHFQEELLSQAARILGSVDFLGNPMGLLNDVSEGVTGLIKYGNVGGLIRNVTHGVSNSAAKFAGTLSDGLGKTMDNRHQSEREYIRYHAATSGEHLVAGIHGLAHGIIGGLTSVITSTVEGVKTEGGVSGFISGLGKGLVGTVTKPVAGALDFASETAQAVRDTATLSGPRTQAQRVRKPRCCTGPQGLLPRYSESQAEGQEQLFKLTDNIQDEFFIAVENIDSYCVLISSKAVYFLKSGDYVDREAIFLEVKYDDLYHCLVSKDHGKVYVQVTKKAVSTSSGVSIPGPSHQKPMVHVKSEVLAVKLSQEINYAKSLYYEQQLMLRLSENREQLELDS
UniProt P45880: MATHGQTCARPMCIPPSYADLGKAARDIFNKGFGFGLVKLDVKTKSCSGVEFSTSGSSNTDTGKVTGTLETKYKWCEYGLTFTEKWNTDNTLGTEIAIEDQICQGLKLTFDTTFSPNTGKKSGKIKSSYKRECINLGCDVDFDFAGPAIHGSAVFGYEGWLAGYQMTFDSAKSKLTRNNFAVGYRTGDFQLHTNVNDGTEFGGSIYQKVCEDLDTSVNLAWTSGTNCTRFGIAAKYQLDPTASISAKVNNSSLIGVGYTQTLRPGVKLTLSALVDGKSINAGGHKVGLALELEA
UniProt P04004: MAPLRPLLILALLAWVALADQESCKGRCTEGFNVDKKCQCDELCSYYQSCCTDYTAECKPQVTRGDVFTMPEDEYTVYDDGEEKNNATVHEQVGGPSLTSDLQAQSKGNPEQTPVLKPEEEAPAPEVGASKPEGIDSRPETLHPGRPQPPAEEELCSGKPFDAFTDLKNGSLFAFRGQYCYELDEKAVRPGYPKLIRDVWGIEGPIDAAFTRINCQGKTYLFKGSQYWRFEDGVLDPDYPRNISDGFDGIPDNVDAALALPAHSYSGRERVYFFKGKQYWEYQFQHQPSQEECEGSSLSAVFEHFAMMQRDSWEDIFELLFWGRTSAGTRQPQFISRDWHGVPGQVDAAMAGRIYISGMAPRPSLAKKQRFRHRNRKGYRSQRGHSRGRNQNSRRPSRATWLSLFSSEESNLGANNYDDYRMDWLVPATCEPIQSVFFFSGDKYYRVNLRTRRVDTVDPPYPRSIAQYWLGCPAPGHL
UniProt A6NGB9: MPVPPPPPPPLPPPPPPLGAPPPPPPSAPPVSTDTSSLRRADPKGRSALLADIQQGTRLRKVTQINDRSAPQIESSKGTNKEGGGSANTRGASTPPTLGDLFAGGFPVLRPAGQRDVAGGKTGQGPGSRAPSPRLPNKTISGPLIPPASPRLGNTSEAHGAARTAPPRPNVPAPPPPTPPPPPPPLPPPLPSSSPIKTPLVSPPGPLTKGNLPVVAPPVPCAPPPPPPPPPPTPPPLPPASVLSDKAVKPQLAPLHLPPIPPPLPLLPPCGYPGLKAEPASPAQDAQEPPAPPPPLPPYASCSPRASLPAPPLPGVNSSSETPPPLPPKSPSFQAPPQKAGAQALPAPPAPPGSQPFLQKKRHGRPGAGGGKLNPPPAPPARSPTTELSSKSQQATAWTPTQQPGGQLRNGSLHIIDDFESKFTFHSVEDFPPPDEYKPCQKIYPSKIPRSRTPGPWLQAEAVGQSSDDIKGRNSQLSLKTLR

[2] = compound: CC1=C(C=C(C=C1)NC(=O)C2=CC(=CC=C2)N(C)C)NC(=O)C3=CC=C(C=C3)O
Summary of the method: as §1

[3] = compound: CC1=CC=C(C=C1)SC2=C3C=C(SC3=CN=C2)C(=O)N
Summary of the method: as §1

[4] = compound: CC1=NC(=CC=C1)C2=C(N=C(N2)C(C)(C)C)C3=CC4=NC=CN=C4C=C3
Summary of the method: as §1

[5] = compound: CCCCN(Cc1ccc(C(=O)NO)cc1)C(=O)Nc1ccccc1 [Nexturastat A]
Summary of the method: as §1

[6] = compound: CCCS(=O)(=O)Nc1ccc(F)c(C(=O)c2c[nH]c3ncc(-c4ccc(Cl)cc4)cc23)c1F [vemurafenib]
Summary of the method: as §1

[7] = compound: CCCS(=O)(=O)Nc1ccc(F)c(C(=O)c2c[nH]c3ncc(Cl)cc23)c1F
Summary of the method: as §1

[8] = compound: CCCc1cc(C)[nH]c(=O)c1CNC(=O)c1cc(-c2ccnc(N3CCN(C)CC3)c2)cc2c1cnn2C(C)C
Summary of the method: as §1

[9] = compound: CCN(CC)Cc1ccc2cc(COC(=O)Nc3ccc(C(=O)NO)cc3)ccc2c1 [givinostat]
Summary of the method: as §1

[10] = compound: CCN(CCCOc1ccc2c(Nc3cc(CC(=O)Nc4cccc(F)c4)[nH]n3)ncnc2c1)CCOP(=O)(O)O [barasertib]
Summary of the method: as §1

[11] = compound: CC[C@@H]1C(=O)N(C)c2cnc(Nc3ccc(C(=O)NC4CCN(C)CC4)cc3OC)nc2N1C1CCCC1
Summary of the method: as §1

[12] = compound: CC[C@@H]1C(=O)N(C)c2cnc(Nc3ccc(C(=O)N[C@H]4CC[C@H](N5CCN(CC6CC6)CC5)CC4)cc3OC)nc2N1C(C)C [volasertib]
Summary of the method: as §1

[13] = compound: CC[C@H](C)N1C=C(C2=C(C=C(C=C21)C3=CN=C(C=C3)N4CCNCC4)C(=O)NCC5=C(C=C(NC5=O)C)C)C
Summary of the method: as §1

[14] = compound: CC[C@H](C)[C@@H](C(=O)N[C@@H]([C@@H](C)O)C(=O)N[C@@H](CC(C)C)C(=O)[C@]1(CO1)C)NC(=O)[C@H]([C@@H](C)CC)N(C)C(=O)C [epoxomicin]
Summary of the method: as §1

[15] = compound: CCn1c(C(=O)N(C2CC2)C2CC2)cc2c3c(ncn3C)c(Nc3cc(C)n(C)n3)nc21
Summary of the method: as §1

[16] = compound: CCn1cc(-c2ccnc3[nH]c(-c4cccc(CN(C)C)c4)cc23)c(-c2ccc(NC(=O)N(C)C)cc2)n1
Summary of the method: as §1

[17] = compound: CN(C)CC(=O)Nc1ccc2[nH]c(=O)c3ccccc3c2c1
Summary of the method: as §1

[18] = compound: CN(CCOC1=CC=C(C=C1)C[C@H]2C(=O)NC(=O)S2)C3=CC=CC=N3 (racemic) [rosiglitazone]
Summary of the method: as §1

[19] = compound: CN1C2=C(C3=C1C(=O)N(N=C3)CC4=CC(=CC=C4)N)SC(=C2)S(=O)C
Summary of the method: as §1

[20] = compound: CN1CCC(CNc2ccc3ncc(-c4cccc(OC(F)(F)F)c4)n3n2)CC1
Summary of the method: as §1

Measured: log2 fold change

VPS26A (UniProt O75436)
inactive: [1] 0.02 | [2] 0.019 | [3] 0.026 | [4] 0.053 | [5] 0.037 | [6] 0.021 | [7] 0.059 | [8] -0.065 | [9] 0.009 | [10] -0.019 | [11] 0.019 | [12] -0.087 | [13] 0.028 | [14] 0.033 | [15] 0.01 | [16] -0.043 | [17] 0.035 | [18] 0.074 | [19] -0.073 | [20] -0.058

WDR6 (UniProt Q9NNW5)
inactive: [1] -0.011 | [2] 0.014 | [3] -0.007 | [4] 0.019 | [5] 0.057 | [6] -0.036 | [7] 0.041 | [8] 0.005 | [9] 0.016 | [10] 0.015 | [11] -0.017 | [12] 0.053 | [13] -0.001 | [14] -0.009 | [15] -0.006 | [16] -0.029 | [17] -0.014 | [18] -0.031 | [19] -0.024 | [20] 0.125

WDR43 (UniProt Q15061)
inactive: [1] -0.015 | [2] 0.018 | [3] 0.009 | [4] -0.001 | [5] -0.097 | [6] -0.027 | [7] 0.012 | [8] -0.061 | [9] -0.007 | [10] -0.033 | [11] 0.029 | [12] -0.029 | [13] -0.04 | [14] -0.026 | [16] 0.036 | [17] 0.004 | [19] -0.04 | [20] 0.192

WDR20 isoform 7 (UniProt Q8TBZ3)
inactive: [1] 0.079 | [2] -0.007 | [3] -0.034 | [4] 0.01 | [5] 0.169 | [6] -0.012 | [7] -0.001 | [8] 0.085 | [9] -0.161 | [10] 0.254 | [11] 0.09 | [12] 0.095 | [13] 0.027 | [14] 0.018 | [15] -0.041 | [16] -0.035 | [17] -0.005 | [18] -0.037 | [19] -0.092 | [20] -0.022

WDR12 (UniProt Q9GZL7)
inactive: [1] -0.009 | [2] 0.007 | [3] 0.03 | [4] 0.025 | [5] -0.043 | [6] -0.044 | [7] -0.005 | [8] -0.036 | [9] 0.004 | [10] -0.007 | [11] 0.009 | [12] -0.053 | [13] -0.007 | [14] 0.005 | [15] 0.024 | [16] 0 | [17] -0.007 | [18] 0.012 | [19] -0.017 | [20] -0.035

WDR70 (UniProt Q9NW82)
inactive: [1] 0.011 | [2] 0.031 | [3] -0.001 | [4] 0.007 | [5] -0.085 | [6] -0.013 | [7] 0.003 | [8] -0.029 | [9] -0.001 | [10] 0.007 | [11] 0.025 | [12] -0.007 | [13] 0.017 | [14] 0.05 | [15] 0.003 | [16] -0.021 | [17] -0.005 | [18] 0.025 | [19] -0.07 | [20] 0.04

VPS25 (UniProt Q9BRG1)
inactive: [1] 0.024 | [2] -0.018 | [3] 0.027 | [4] 0.019 | [5] -0.037 | [6] 0.041 | [7] 0.015 | [8] -0.044 | [9] -0.007 | [10] 0.023 | [11] 0.013 | [12] -0.069 | [13] 0.021 | [14] 0.002 | [15] 0.019 | [16] -0.019 | [17] 0.005 | [18] 0.038 | [19] -0.102 | [20] -0.027

WDFY1 (UniProt Q8IWB7)
inactive: [1] 0 | [2] 0.033 | [3] 0.025 | [4] -0.017 | [5] -0.002 | [6] -0.022 | [7] 0.03 | [8] -0.008 | [9] -0.03 | [10] 0.012 | [11] -0.031 | [12] -0.038 | [13] -0.033 | [14] 0.034 | [15] -0.027 | [16] 0.029 | [17] -0.02 | [18] -0.006 | [19] 0.009 | [20] -0.051

VPS13D (UniProt Q5THJ4)
inactive: [1] -0.223 | [2] -0.001 | [3] 0.017 | [4] 0.035 | [5] 0.07 | [6] -0.056 | [7] -0.004 | [8] -0.139 | [9] 0.174 | [10] 0.076 | [11] -0.06 | [12] -0.115 | [13] -0.069 | [14] -0.049 | [15] 0.011 | [16] -0.045 | [17] -0.084 | [18] -0.052 | [19] 0.096 | [20] -0.119

VDAC2 (UniProt P45880)
inactive: [1] 0.002 | [2] 0.018 | [3] 0.008 | [4] -0.002 | [5] -0.013 | [6] -0.031 | [7] -0.013 | [8] -0.011 | [9] -0.015 | [10] -0.026 | [11] 0.022 | [12] 0.049 | [13] -0.014 | [14] 0.002 | [15] 0.017 | [16] -0.017 | [17] -0.015 | [19] -0.031 | [20] 0.048

VTN (UniProt P04004)
inactive: [1] -0.132 | [2] 0.265 | [3] 0.064 | [4] -0.085 | [5] 0.146 | [6] -0.043 | [7] -0.105 | [8] -0.447 | [9] 0.091 | [10] -0.017 | [11] 0.025 | [12] 0.181 | [13] -0.018 | [14] -0.335 | [15] 0.042 | [17] -0.158 | [18] 0.107 | [19] 0.38

WIPF3 (UniProt A6NGB9)
inactive: [1] 0.026 | [2] -0.022 | [3] 0.042 | [4] -0.058 | [5] -0.082 | [6] 0.054 | [7] 0.02 | [8] -0.086 | [9] 0.011 | [10] 0.01 | [11] 0.008 | [12] 0.082 | [13] -0.01 | [14] 0.054 | [15] -0.048 | [16] -0.03 | [17] -0.009 | [18] 0.013 | [19] -0.022 | [20] 0.232

VPS35 (UniProt Q96QK1)
inactive: [1] 0.003 | [2] 0.009 | [3] 0.086 | [4] 0.068 | [5] -0.107 | [6] 0.012 | [7] 0.028 | [8] -0.017 | [9] -0.024 | [10] 0.024 | [11] -0.037 | [12] -0.118 | [13] 0.037 | [14] 0.04 | [15] -0.007 | [16] -0.09 | [17] -0.009 | [18] 0.028 | [19] -0.062 | [20] -0.16

WDR59 (UniProt Q6PJI9)
inactive: [1] 0.019 | [2] -0.066 | [3] -0.058 | [4] -0.004 | [5] 0.238 | [6] -0.052 | [7] -0.06 | [8] 0.097 | [9] 0.015 | [10] 0.019 | [11] -0.017 | [12] -0.033 | [13] -0.101 | [14] 0.255 | [15] -0.006 | [16] -0.008 | [17] -0.021 | [18] 0.067 | [19] 0.061 | [20] 0.062

VKORC1L1, A0A3B3ISV4
inactive: [1] 0.039 | [2] -0.1 | [3] -0.018 | [4] 0.053 | [5] -0.075 | [6] -0.111 | [7] 0 | [8] -0.096 | [9] -0.005 | [10] 0.037 | [11] 0.083 | [12] -0.016 | [13] -0.028 | [14] -0.035 | [15] 0.009 | [16] 0.068 | [17] 0.01 | [18] 0.016 | [19] -0.148 | [20] 0.121

WDR82 (UniProt Q6UXN9)
inactive: [1] 0.026 | [2] 0.008 | [3] -0.032 | [4] -0.082 | [5] 0.096 | [6] -0.073 | [7] 0.003 | [8] 0.066 | [9] -0.008 | [10] -0.088 | [11] 0.135 | [12] 0.098 | [13] -0.005 | [14] -0.092 | [15] -0.002 | [16] 0.136 | [17] -0.034 | [18] -0.079 | [19] 0.117 | [20] 0.213

Reprinted at random: 2 entries already listed
WIPF3 (UniProt A6NGB9)
inactive: [1] 0.026 | [2] -0.022 | [3] 0.042 | [4] -0.058 | [5] -0.082 | [6] 0.054 | [7] 0.02 | [8] -0.086 | [9] 0.011 | [10] 0.01 | [11] 0.008 | [12] 0.082 | [13] -0.01 | [14] 0.054 | [15] -0.048 | [16] -0.03 | [17] -0.009 | [18] 0.013 | [19] -0.022 | [20] 0.232

WDR59 (UniProt Q6PJI9)
inactive: [1] 0.019 | [2] -0.066 | [3] -0.058 | [4] -0.004 | [5] 0.238 | [6] -0.052 | [7] -0.06 | [8] 0.097 | [9] 0.015 | [10] 0.019 | [11] -0.017 | [12] -0.033 | [13] -0.101 | [14] 0.255 | [15] -0.006 | [16] -0.008 | [17] -0.021 | [18] 0.067 | [19] 0.061 | [20] 0.062

Source: the supplement of paper PMC10849652
